The source of these data is paper doi:10.1101/2024.07.25.605061.

Sequences of proteins named here, by UniProt entry; tags and fusion partners are left off. A change or cut given only in a name is not applied to a line headed by its entry.
UniProt Q9S7T1: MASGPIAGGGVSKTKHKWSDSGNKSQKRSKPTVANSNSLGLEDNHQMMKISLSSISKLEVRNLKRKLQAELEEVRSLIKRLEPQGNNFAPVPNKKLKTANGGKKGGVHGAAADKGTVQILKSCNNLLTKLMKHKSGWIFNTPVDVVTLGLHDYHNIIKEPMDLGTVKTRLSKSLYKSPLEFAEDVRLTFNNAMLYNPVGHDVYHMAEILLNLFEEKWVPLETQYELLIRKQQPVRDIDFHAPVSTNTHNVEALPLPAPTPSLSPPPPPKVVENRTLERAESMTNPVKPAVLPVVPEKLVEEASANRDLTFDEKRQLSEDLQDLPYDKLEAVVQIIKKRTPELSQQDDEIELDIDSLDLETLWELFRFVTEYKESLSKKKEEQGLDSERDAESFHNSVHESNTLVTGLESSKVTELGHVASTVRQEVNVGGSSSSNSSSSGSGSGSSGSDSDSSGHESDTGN

Like-named read-outs stand apart in the source and are kept apart here. No constants are given. Whether binding was seen depends on the method and setting. In cells and extracts the contact can be indirect. Here binding means that the protein was enriched with, or labelled near, the bait; the list need not be complete. For some of these results: A no says only that the protein was not detected with the bait. Tags and fused reporters may be left off the sequences shown.

Common to all, as to experiment: affinity purification with mass spectrometry
For assay [1], the target named is T1, EML2-FLAG (Arabidopsis thaliana) (UniProt Q9FG29).
T1 sequence: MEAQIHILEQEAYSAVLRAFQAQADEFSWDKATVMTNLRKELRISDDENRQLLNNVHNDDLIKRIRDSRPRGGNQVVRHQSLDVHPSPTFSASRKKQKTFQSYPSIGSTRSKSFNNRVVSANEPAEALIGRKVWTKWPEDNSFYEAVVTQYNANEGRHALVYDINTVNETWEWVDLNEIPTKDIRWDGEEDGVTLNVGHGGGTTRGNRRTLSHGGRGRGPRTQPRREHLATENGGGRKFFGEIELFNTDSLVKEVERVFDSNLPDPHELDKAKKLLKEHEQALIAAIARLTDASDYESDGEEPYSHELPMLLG

For assay [2], the target named is T2, GTE4-FLAG (Arabidopsis thaliana) (UniProt Q9LNC4).
T2 sequence: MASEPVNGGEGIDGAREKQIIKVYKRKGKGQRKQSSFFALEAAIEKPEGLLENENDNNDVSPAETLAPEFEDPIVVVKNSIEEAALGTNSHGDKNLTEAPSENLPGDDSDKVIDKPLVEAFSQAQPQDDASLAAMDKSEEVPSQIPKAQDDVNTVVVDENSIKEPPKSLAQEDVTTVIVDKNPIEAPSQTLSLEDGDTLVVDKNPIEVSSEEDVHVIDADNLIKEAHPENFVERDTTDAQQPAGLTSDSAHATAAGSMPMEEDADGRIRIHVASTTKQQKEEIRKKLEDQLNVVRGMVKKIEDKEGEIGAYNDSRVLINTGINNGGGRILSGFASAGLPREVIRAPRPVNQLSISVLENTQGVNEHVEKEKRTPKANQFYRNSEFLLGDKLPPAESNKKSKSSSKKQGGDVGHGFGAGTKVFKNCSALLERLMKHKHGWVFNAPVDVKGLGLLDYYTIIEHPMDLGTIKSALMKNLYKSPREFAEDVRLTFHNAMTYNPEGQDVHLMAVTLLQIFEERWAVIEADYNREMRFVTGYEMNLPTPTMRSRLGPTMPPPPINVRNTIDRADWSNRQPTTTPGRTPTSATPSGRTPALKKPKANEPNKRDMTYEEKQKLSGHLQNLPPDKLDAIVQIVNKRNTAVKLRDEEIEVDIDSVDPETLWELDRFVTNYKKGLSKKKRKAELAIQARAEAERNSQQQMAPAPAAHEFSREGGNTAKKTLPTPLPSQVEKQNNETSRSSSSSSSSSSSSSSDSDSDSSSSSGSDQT

Assay [3] has as its target T3, GTE4-ΔEID-FLAG (Arabidopsis thaliana) (UniProt Q9LNC4).
T3 sequence: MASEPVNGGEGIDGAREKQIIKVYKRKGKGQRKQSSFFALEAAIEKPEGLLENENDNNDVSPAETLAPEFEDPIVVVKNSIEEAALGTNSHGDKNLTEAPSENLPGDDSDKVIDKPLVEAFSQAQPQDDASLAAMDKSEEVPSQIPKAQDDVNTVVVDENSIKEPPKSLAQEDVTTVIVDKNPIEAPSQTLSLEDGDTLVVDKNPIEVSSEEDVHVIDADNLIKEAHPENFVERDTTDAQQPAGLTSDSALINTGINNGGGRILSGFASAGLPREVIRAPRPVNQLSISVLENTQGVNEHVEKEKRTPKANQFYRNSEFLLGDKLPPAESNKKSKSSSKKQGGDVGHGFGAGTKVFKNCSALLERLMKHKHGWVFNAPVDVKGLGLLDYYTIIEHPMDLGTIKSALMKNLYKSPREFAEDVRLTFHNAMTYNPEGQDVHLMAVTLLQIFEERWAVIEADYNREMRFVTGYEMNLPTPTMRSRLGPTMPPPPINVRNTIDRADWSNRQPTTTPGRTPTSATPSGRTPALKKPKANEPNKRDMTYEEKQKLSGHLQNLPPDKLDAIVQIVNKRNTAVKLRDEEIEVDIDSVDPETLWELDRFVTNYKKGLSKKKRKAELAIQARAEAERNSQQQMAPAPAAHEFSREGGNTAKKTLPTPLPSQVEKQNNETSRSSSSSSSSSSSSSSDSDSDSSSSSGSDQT

Assay [4] deals with T4, EML1-FLAG (Arabidopsis thaliana) (UniProt Q9C7C4).
T4 sequence: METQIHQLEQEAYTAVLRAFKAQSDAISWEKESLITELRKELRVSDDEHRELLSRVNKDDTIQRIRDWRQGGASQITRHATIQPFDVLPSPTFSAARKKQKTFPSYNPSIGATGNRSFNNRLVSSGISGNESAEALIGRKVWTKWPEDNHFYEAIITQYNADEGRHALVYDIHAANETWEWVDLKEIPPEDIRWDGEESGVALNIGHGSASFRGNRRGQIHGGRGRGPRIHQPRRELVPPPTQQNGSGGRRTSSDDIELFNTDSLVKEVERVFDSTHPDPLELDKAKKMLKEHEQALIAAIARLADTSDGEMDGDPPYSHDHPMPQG

The target in assay [5] is T1, EML2-FLAG (Arabidopsis thaliana). This is another data set of the same source.

Regarding GTE3 (endogenous) (from UniProt Q9S7T1), the binding entry in assay [1] was “binds”.

B1: EML2 (endogenous) (protein, UniProt Q9FG29 1-313)
chain: MEAQIHILEQEAYSAVLRAFQAQADEFSWDKATVMTNLRKELRISDDENRQLLNNVHNDDLIKRIRDSRPRGGNQVVRHQSLDVHPSPTFSASRKKQKTFQSYPSIGSTRSKSFNNRVVSANEPAEALIGRKVWTKWPEDNSFYEAVVTQYNANEGRHALVYDINTVNETWEWVDLNEIPTKDIRWDGEEDGVTLNVGHGGGTTRGNRRTLSHGGRGRGPRTQPRREHLATENGGGRKFFGEIELFNTDSLVKEVERVFDSNLPDPHELDKAKKLLKEHEQALIAAIARLTDASDYESDGEEPYSHELPMLLG
Turning to B1, the binding result in assay [2] was “binds”; in assay [3], “no binding”.

B2: EML1 (endogenous) (protein, UniProt Q9C7C4 1-327)
chain: METQIHQLEQEAYTAVLRAFKAQSDAISWEKESLITELRKELRVSDDEHRELLSRVNKDDTIQRIRDWRQGGASQITRHATIQPFDVLPSPTFSAARKKQKTFPSYNPSIGATGNRSFNNRLVSSGISGNESAEALIGRKVWTKWPEDNHFYEAIITQYNADEGRHALVYDIHAANETWEWVDLKEIPPEDIRWDGEESGVALNIGHGSASFRGNRRGQIHGGRGRGPRIHQPRRELVPPPTQQNGSGGRRTSSDDIELFNTDSLVKEVERVFDSTHPDPLELDKAKKMLKEHEQALIAAIARLADTSDGEMDGDPPYSHDHPMPQG
Consider B2, for which the binding entry in assay [2] is reported as “binds”; in assay [3] it was “no binding”.

B3: GTE4 (endogenous) (protein, UniProt Q9LNC4 1-766)
chain: MASEPVNGGEGIDGAREKQIIKVYKRKGKGQRKQSSFFALEAAIEKPEGLLENENDNNDVSPAETLAPEFEDPIVVVKNSIEEAALGTNSHGDKNLTEAPSENLPGDDSDKVIDKPLVEAFSQAQPQDDASLAAMDKSEEVPSQIPKAQDDVNTVVVDENSIKEPPKSLAQEDVTTVIVDKNPIEAPSQTLSLEDGDTLVVDKNPIEVSSEEDVHVIDADNLIKEAHPENFVERDTTDAQQPAGLTSDSAHATAAGSMPMEEDADGRIRIHVASTTKQQKEEIRKKLEDQLNVVRGMVKKIEDKEGEIGAYNDSRVLINTGINNGGGRILSGFASAGLPREVIRAPRPVNQLSISVLENTQGVNEHVEKEKRTPKANQFYRNSEFLLGDKLPPAESNKKSKSSSKKQGGDVGHGFGAGTKVFKNCSALLERLMKHKHGWVFNAPVDVKGLGLLDYYTIIEHPMDLGTIKSALMKNLYKSPREFAEDVRLTFHNAMTYNPEGQDVHLMAVTLLQIFEERWAVIEADYNREMRFVTGYEMNLPTPTMRSRLGPTMPPPPINVRNTIDRADWSNRQPTTTPGRTPTSATPSGRTPALKKPKANEPNKRDMTYEEKQKLSGHLQNLPPDKLDAIVQIVNKRNTAVKLRDEEIEVDIDSVDPETLWELDRFVTNYKKGLSKKKRKAELAIQARAEAERNSQQQMAPAPAAHEFSREGGNTAKKTLPTPLPSQVEKQNNETSRSSSSSSSSSSSSSSDSDSDSSSSSGSDQT
Take B3: the binding result in assay [4] and in assay [5] was “binds” throughout.
